This assay concerns HEK293A TEAD-LUC reporter. Kind of assay: TEAD-luciferase reporter activity (YAP activation), robust Z score vs plate; higher = stronger YAP/TEAD activation. The conditions noted are these: 24 h. (In general: Reporter assays use an easily measured gene product as a stand-in for the process of interest.)

Counter-ions that a name gives are not always drawn. The list shows a part of the results. Repeats in this data set agree poorly, so a single value says little.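 Human kidney-derived cells stably carry a construct in which eight TEAD-binding elements drive luciferase, measured by luminescence in a drug-repurposing library screen. A hit is any compound whose signal exceeds the plate mean by more than five robust Z scores.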

For `O=C(NC1CCC1)c1ccc2nccn2c1`, the TEAD-luciferase reporter activity runs as follows: (compound concentration: 200 nM) inactive: -1.06; (compound concentration: 10 uM) inactive: -1.42.

For the compound `COc1ccc(/C=C\c2cc(OC)c(OC)c(OC)c2)cc1OP(=O)([O-])[O-]` [fosbretabulin tromethamine], the TEAD-luciferase reporter activity by setting is: (compound concentration: 200 nM) inactive: -0.355; (compound concentration: 10 uM) inactive: 0.996.

`C[C@]1(O)[C@H](O)[C@@H](CO)O[C@H]1n1ccc(N)nc1=O`: the TEAD-luciferase reporter activity was inactive: -0.551 (compound concentration: 200 nM) and inactive: -0.648 (compound concentration: 10 uM).

As for `C[C@H](Nc1ncnc2[nH]cnc12)c1cc2ccc(F)cc2nc1-c1ccccn1`, the TEAD-luciferase reporter activity was inactive: -0.94 (compound concentration: 200 nM), inactive: -0.573 (compound concentration: 2 uM) and inactive: -0.291 (compound concentration: 10 uM).

Regarding `CC12CCC3C(C1)c1c(cc(O)cc1OC3(C)C)O2` (configuration not stated), the TEAD-luciferase reporter activity is inactive: 0.126 (compound concentration: 200 nM), inactive: -0.869 (compound concentration: 2 uM) and inactive: -0.275 (compound concentration: 10 uM).

For the compound `CN(c1nccc(=O)[nH]1)C1CCN(c2nc3ccccc3n2Cc2ccc(F)cc2)CC1` [mizolastine], the TEAD-luciferase reporter activity by setting is: (compound concentration: 200 nM) inactive: -1.85; (compound concentration: 2 uM) inactive: 0.374; (compound concentration: 10 uM) inactive: 2.03.

`Cc1cnc2c(c1)CCCC2C(N)=S` (configuration not stated) [Tiquinamide]: the TEAD-luciferase reporter activity reads like this: (compound concentration: 200 nM) inactive: -0.337; (compound concentration: 2 uM) inactive: 0.309; (compound concentration: 10 uM) inactive: -0.419.

Take `O=C1CN(/N=C/c2ccc(-c3ccc([N+](=O)[O-])cc3)o2)C(=O)N1` [dantrolene sodium]: the TEAD-luciferase reporter activity (compound concentration: 2 uM) is inactive: 2.36.

Regarding `O=C1CN(/N=C/c2ccc(-c3ccc([N+](=O)[O-])cc3)o2)C(=O)N1` [Dantrolene??Sodium], the TEAD-luciferase reporter activity is inactive: -1.73 (compound concentration: 200 nM) and inactive: 0.627 (compound concentration: 10 uM).

Turning to `CC1(C)C=C(n2ccccc2=O)c2cc(C#N)ccc2C1=O`, the TEAD-luciferase reporter activity reads like this: (compound concentration: 200 nM) inactive: -1.4; (compound concentration: 2 uM) inactive: 0.83; (compound concentration: 10 uM) inactive: -1.73.

With `CCOc1ccc(C=C2NCCc3cc(OCC)c(OCC)cc32)cc1OCC` [Drotaverine hydrochloride], the TEAD-luciferase reporter activity is, setting by setting: (compound concentration: 200 nM) active: 5.91; (compound concentration: 2 uM) inactive: -0.711; (compound concentration: 10 uM) inactive: -1.05.

Regarding `C[C@H](CCC(=O)NCCS(=O)(=O)O)[C@H]1CC[C@H]2[C@@H]3[C@@H](O)C[C@@H]4C[C@H](O)CC[C@]4(C)[C@H]3CC[C@]12C` [Ursodeoxycholyltaurine], the TEAD-luciferase reporter activity (compound concentration: 2 uM) was inactive: -0.245.

With `C[C@H](CCC(=O)NCCS(=O)(=O)O)[C@H]1CC[C@H]2[C@@H]3[C@@H](O)C[C@@H]4C[C@H](O)CC[C@]4(C)[C@H]3CC[C@]12C` [Sodium tauroursodeoxycholate (Tudca)], the TEAD-luciferase reporter activity was inactive: -0.171 (compound concentration: 200 nM) and inactive: 0.806 (compound concentration: 10 uM).

On to `CCCOc1cc(N)c(Cl)cc1C(=O)NC1CCN(CCCC2CCCO2)CC1` (configuration not stated), for which the TEAD-luciferase reporter activity (compound concentration: 200 nM) is inactive: -0.586, the TEAD-luciferase reporter activity (compound concentration: 2 uM) was inactive: -1.19 and the TEAD-luciferase reporter activity (compound concentration: 10 uM) is inactive: 2.05.

On to `O=c1[nH]sc2cc(Cl)ccc12`, for which the TEAD-luciferase reporter activity by setting is: (compound concentration: 200 nM) inactive: 2.27; (compound concentration: 2 uM) inactive: -0.859; (compound concentration: 10 uM) inactive: 2.46.

In the case of `N=C(NCCCCCCCCCCCN)NC(=O)c1nc(Cl)c(N)nc1N`, the TEAD-luciferase reporter activity (compound concentration: 200 nM) is inactive: -0.714, the TEAD-luciferase reporter activity (compound concentration: 2 uM) is inactive: 2.03 and the TEAD-luciferase reporter activity (compound concentration: 10 uM) was inactive: -0.329.

For the compound `CC(=O)OCCN1CCN(CC/C=C2\c3ccccc3Sc3ccc(Cl)cc32)CC1` [Zuclopenthixol acetate], the TEAD-luciferase reporter activity is, setting by setting: (compound concentration: 200 nM) inactive: -0.214; (compound concentration: 2 uM) inactive: 1.05; (compound concentration: 10 uM) inactive: -1.6.

In the case of `Cc1cn([C@H]2C[C@H](F)[C@@H](CO)O2)c(=O)[nH]c1=O` [Alovudine], the TEAD-luciferase reporter activity runs as follows: (compound concentration: 200 nM) inactive: -0.926; (compound concentration: 2 uM) inactive: -0.939; (compound concentration: 10 uM) inactive: 1.97.

As for `FC(F)(F)Oc1ccc(-c2ccc3nnc(C(F)(F)F)n3c2)cc1`, the TEAD-luciferase reporter activity is inactive: -0.431 (compound concentration: 200 nM) and inactive: 3 (compound concentration: 10 uM).

Take `CCC1NC(=O)C(CCCCN)NC(=O)C(Cc2c[nH]c3ccccc23)NC(=O)C(Cc2ccc(O)cc2)NC(=O)C(NC(=O)C(Cc2ccccc2)NS(=O)(=O)CCN2CCN(CCO)CC2)CSSCC(C(=O)NC(C(N)=O)C(C)O)NC1=O` (configuration not stated): the TEAD-luciferase reporter activity reads like this: (compound concentration: 200 nM) inactive: -2.52; (compound concentration: 2 uM) inactive: 0.415; (compound concentration: 10 uM) inactive: 0.0877.

Take `CC(C)Cn1nc(-c2ccccc2)c(-c2ccccc2)c1CC(=O)O`: the TEAD-luciferase reporter activity (compound concentration: 200 nM) is inactive: 0.246, the TEAD-luciferase reporter activity (compound concentration: 2 uM) is inactive: 2.3 and the TEAD-luciferase reporter activity (compound concentration: 10 uM) was inactive: 2.37.

With `O=C(C1CN(c2ccccc2)C(=O)N1)N1CCCC1` (configuration not stated), the TEAD-luciferase reporter activity was inactive: 0.476 (compound concentration: 200 nM) and inactive: 1.47 (compound concentration: 10 uM).

For `COc1ccc(CN2CCC(N3Cc4ccccc4C3=O)CC2)cc1`, the TEAD-luciferase reporter activity runs as follows: (compound concentration: 200 nM) inactive: 1.19; (compound concentration: 10 uM) inactive: 1.61.

With `OC[C@H]1O[C@@H](Oc2cc3c(O)cc(O)cc3[o+]c2-c2ccc(O)c(O)c2)[C@H](O)[C@@H](O)[C@@H]1O` [Cyanidin-3-glucoside], the TEAD-luciferase reporter activity by setting is: (compound concentration: 200 nM) inactive: 1.45; (compound concentration: 2 uM) inactive: -0.135; (compound concentration: 10 uM) inactive: -1.06.

As to `CCC(C)(C)NC(=O)c1ccc(NC(C)=O)cc1`, the TEAD-luciferase reporter activity (compound concentration: 2 uM) is inactive: -1.58.

As for `CCC(C)(C)NC(=O)c1ccc(NC(C)=O)cc1` [NRTs, Centaur], the TEAD-luciferase reporter activity was inactive: -0.104 (compound concentration: 200 nM) and inactive: -1.44 (compound concentration: 10 uM).

Take `COc1ccc(CCNCC(O)COc2ccc(OCC(C)=O)c3c2CCC(=O)N3)cc1OC` (configuration not stated): the TEAD-luciferase reporter activity by setting is: (compound concentration: 200 nM) inactive: -2.31; (compound concentration: 2 uM) inactive: -1.12; (compound concentration: 10 uM) inactive: 1.4.

For `CCOS(=O)(=O)c1cc(C(C)(C)C)cc2cc(C(C)(C)C)ccc12`, the TEAD-luciferase reporter activity (compound concentration: 200 nM) was inactive: -0.291, the TEAD-luciferase reporter activity (compound concentration: 2 uM) was inactive: -0.432 and the TEAD-luciferase reporter activity (compound concentration: 10 uM) is inactive: 0.709.

For the compound `Cc1ccc(C(=O)N(CCCN)C(c2oc3cc(Cl)ccc3c(=O)c2Cc2ccccc2)C(C)C)cc1` (configuration not stated), the TEAD-luciferase reporter activity is inactive: 3.23 (compound concentration: 200 nM), inactive: 0.166 (compound concentration: 2 uM) and inactive: -0.316 (compound concentration: 10 uM).
